PubChem BioAssay AID743121 | NCATS, 2013
The whole screen tested about 26,000 reagents; this is a random part of them. Over the whole deposit, 167 (0.63%) are marked active. 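Calls are per gene from RSA p-values that are not deposited; an individual active-marked siRNA can sensitise only weakly.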

Aim: 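Genes whose silencing strengthens cell killing by camptothecin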 (primary screen)
Cells: MDA-MB-231 cells, a human breast cancer line
Reagents: single siRNA against human genes, 20 nM siRNA (0.8 pmol per well)
Duration: 120 h (drug added 48 h after transfection, read 72 h later)
Treatment: camptothecin 20 nM (about EC30) for 72 h; vehicle 0.1% DMSO in parallel plates
Measurement: 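CellTiter-Glo ATP signal, scaled to control siRNA as percent viability; sensitisation given as log2 of untreated divided by camptothecin-treated viability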
Direction: log2 vehicle/camptothecin viability: higher = stronger sensitisation to camptothecin; viability with camptothecin and viability without drug: higher = more viable cells
Call rule: 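Each gene scored by redundant siRNA activity (RSA) over its individual siRNA ratios; a gene is called active at p < 0.001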

target	PubChem SID	log2 vehicle/camptothecin viability	viability with camptothecin (% of control)	viability without drug (% of control)	activity call
TP53BP2 (tumor protein p53 binding protein 2)	SID164392394	0.369	66.9	86.4	inactive
TP53BP2 (tumor protein p53 binding protein 2)	SID164392395	-0.387	82.9	63.4	inactive
TP53BP2 (tumor protein p53 binding protein 2)	SID164392396	-0.406	70	52.8	inactive
TP53BP2 (tumor protein p53 binding protein 2)	SID164392397	-0.202	89.7	78	inactive
RTP4 (receptor transporter protein 4)	SID164501201	0.178	69.7	78.8	inactive
RTP4 (receptor transporter protein 4)	SID164501202	-0.179	111	97.9	inactive
RTP4 (receptor transporter protein 4)	SID164501205	0.172	41.8	47.1	inactive
RTP4 (receptor transporter protein 4)	SID164501207	-0.203	123	106	inactive
EPHB4 (EPH receptor B4)	SID164363511	0.366	55	70.8	inactive
EPHB4 (EPH receptor B4)	SID164363513	-0.348	62	48.7	inactive
EPHB4 (EPH receptor B4)	SID164363514	-0.118	60.6	55.9	inactive
EPHB4 (EPH receptor B4)	SID164363516	0.0286	92.2	94.1	inactive
RPS6KA6 (ribosomal protein S6 kinase A6)	SID164463612	-0.134	50.9	46.4	inactive
RPS6KA6 (ribosomal protein S6 kinase A6)	SID164463614	1.42	15.1	40.6	inactive
RPS6KA6 (ribosomal protein S6 kinase A6)	SID164463615	-0.137	113	102	inactive
RPS6KA6 (ribosomal protein S6 kinase A6)	SID164463617	-0.392	41.3	31.5	inactive
MNX1 (motor neuron and pancreas homeobox 1)	SID164369013	1.01	43.2	86.7	inactive
MNX1 (motor neuron and pancreas homeobox 1)	SID164369015	-0.662	112	70.8	inactive
MNX1 (motor neuron and pancreas homeobox 1)	SID164369017	-0.498	48.9	34.7	inactive
MNX1 (motor neuron and pancreas homeobox 1)	SID164369018	0.0831	82.9	87.9	inactive
PPARGC1B (PPARG coactivator 1 beta)	SID164570109	-0.148	87	78.6	inactive
PPARGC1B (PPARG coactivator 1 beta)	SID164570110	-0.331	92.4	73.4	inactive
PPARGC1B (PPARG coactivator 1 beta)	SID164570114	0.822	46.6	82.4	inactive
GABRD (gamma-aminobutyric acid type A receptor subunit delta)	SID164365755	-0.0233	56.6	55.7	inactive
GABRD (gamma-aminobutyric acid type A receptor subunit delta)	SID164365756	-0.565	31.8	21.5	inactive
GABRD (gamma-aminobutyric acid type A receptor subunit delta)	SID164365757	0.433	11.7	15.7	inactive
ALOXE3 (arachidonate epidermal lipoxygenase 3)	SID164498633	0.556	39.3	57.8	inactive
ALOXE3 (arachidonate epidermal lipoxygenase 3)	SID164498634	-0.167	108	96.6	inactive
ALOXE3 (arachidonate epidermal lipoxygenase 3)	SID164498636	-0.323	124	99.3	inactive
ALOXE3 (arachidonate epidermal lipoxygenase 3)	SID164498637	0.0288	36.3	37	inactive
MAP4K3 (mitogen-activated protein kinase kinase kinase kinase 3)	SID164397914	-0.187	111	97.8	inactive
MAP4K3 (mitogen-activated protein kinase kinase kinase kinase 3)	SID164397916	-0.0735	90.1	85.6	inactive
MAP4K3 (mitogen-activated protein kinase kinase kinase kinase 3)	SID164397917	0.156	84	93.6	inactive
MAP4K3 (mitogen-activated protein kinase kinase kinase kinase 3)	SID164397918	-0.404	123	93.4	inactive
GPX6 (glutathione peroxidase 6)	SID164606588	0.21	26.7	30.9	inactive
GPX6 (glutathione peroxidase 6)	SID164606589	0.45	48.4	66.1	inactive
GPX6 (glutathione peroxidase 6)	SID164606590	-0.26	98.1	81.9	inactive
GPX6 (glutathione peroxidase 6)	SID164606592	0.0966	99	106	inactive
NDUFV2 (NADH:ubiquinone oxidoreductase core subunit V2)	SID164377525	-0.0765	98.6	93.5	inactive
NDUFV2 (NADH:ubiquinone oxidoreductase core subunit V2)	SID164377529	-0.304	91.7	74.3	inactive
NDUFV2 (NADH:ubiquinone oxidoreductase core subunit V2)	SID164377530	0.965	7.04	13.8	inactive
NDUFV2 (NADH:ubiquinone oxidoreductase core subunit V2)	SID164377532	-0.134	70.4	64.2	inactive
HCK (HCK proto-oncogene, Src family tyrosine kinase)	SID164368653	0.221	39.3	45.9	inactive
HCK (HCK proto-oncogene, Src family tyrosine kinase)	SID164368657	0.00362	42.8	42.9	inactive
HCK (HCK proto-oncogene, Src family tyrosine kinase)	SID164368658	-0.0458	80.5	78	inactive
HCK (HCK proto-oncogene, Src family tyrosine kinase)	SID164368659	0.045	80.9	83.5	inactive
MSTN (myostatin)	SID164366337	0.194	43	49.1	inactive
MSTN (myostatin)	SID164366338	-0.0566	82.1	79	inactive
MSTN (myostatin)	SID164366339	-0.101	86.1	80.3	inactive
MSTN (myostatin)	SID164366340	-0.369	104	80.3	inactive
RUNX2 (RUNX family transcription factor 2)	SID164356720	-0.283	105	86.5	inactive
RUNX2 (RUNX family transcription factor 2)	SID164356721	-0.115	113	105	inactive
RUNX2 (RUNX family transcription factor 2)	SID164356722	-0.341	134	106	inactive
RUNX2 (RUNX family transcription factor 2)	SID164356723	-0.202	114	99.1	inactive
MED4 (mediator complex subunit 4)	SID164464964	-0.193	86.8	76	inactive
MED4 (mediator complex subunit 4)	SID164464966	0.167	96.4	108	inactive
MED4 (mediator complex subunit 4)	SID164464967	-0.197	69.3	60.5	inactive
ASCC2 (activating signal cointegrator 1 complex subunit 2)	SID164543359	-0.352	84.3	66.1	inactive
ASCC2 (activating signal cointegrator 1 complex subunit 2)	SID164543362	-0.257	34	28.5	inactive
ASCC2 (activating signal cointegrator 1 complex subunit 2)	SID164543364	-0.348	40.7	32	inactive
ASCC2 (activating signal cointegrator 1 complex subunit 2)	SID164543366	-0.0859	96.1	90.6	inactive
CXCL10 (C-X-C motif chemokine ligand 10)	SID164371630	-0.112	100	92.9	inactive
CXCL10 (C-X-C motif chemokine ligand 10)	SID164371631	-0.25	74.5	62.6	inactive
CXCL10 (C-X-C motif chemokine ligand 10)	SID164371632	-0.307	94	76	inactive
CXCL10 (C-X-C motif chemokine ligand 10)	SID164371633	-0.39	73.1	55.8	inactive
VEGFB (vascular endothelial growth factor B)	SID164393794	-0.239	49	41.5	inactive
VEGFB (vascular endothelial growth factor B)	SID164393795	-0.0243	82.8	81.4	inactive
VEGFB (vascular endothelial growth factor B)	SID164393796	-0.0194	73.9	72.9	inactive
VEGFB (vascular endothelial growth factor B)	SID164393798	-0.442	1.36	1	inactive
